About 15 (1%) of roughly 1,200 compounds were called active. Roughly 7% stayed inconclusive and do not appear here. Calls follow the shape of the dose curve; as a rule, active = well fitted activation curve with a large enough effect; inconclusive = small, poorly fitted or top-dose-only effect; inactive = flat fitted curve, though single readings scatter. The list shows a part of the results.
molecular target: Beta-2 adrenergic receptor (Homo sapiens) (UniProt P07550); assay: qHTS assay of beta-arrestin-biased ligands of beta2-adrenergic receptor: Hit Validation; details: cell-based beta-arrestin recruitment to beta2AR; Potency: activation; series mostly up to 46.1 µM; activation: at the top concentration;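 as to activation: plate controls were DMSO for no effect and maximal isoproterenol or metaproterenol response for full effect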
How it was run: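 Luminescent tTA-driven luciferase reporter in Tango cells, read after 18 h at 37 °C with compound and 15 min with substrate mix (0.15 mM ATP, 0.44 mM D-luciferin, final). Concentration-response fits categorized by curve class.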
Potency is read from the fitted curve at half-maximal effect.

Structure (SMILES)	activation	Potency
Cc1ccccc1NC(=O)c1c([N+](=O)[O-])c(C(C)(C)C)nn1C	inactive: -1.26%	
CCN=c1scc(-c2ccc(F)cc2)n1/N=C/c1ccccn1	inactive: -3.79%	
Cc1ccc2cccc(SCC(=O)Nc3ccc(F)cc3)c2n1	inactive: -2.73%	
Cc1ccc(N=C2NC(=O)/C(=C/C=C/c3ccco3)S2)cc1	inactive: -2.91%	
CCN(CC)c1ccc(/C=N/Nc2nc(C)cc(C)n2)cc1	inactive: -3.89%	
CC(C)CCN1NC2(CCC(C)CC2)NC1=S (configuration not stated)	inactive: -1.24%	
COc1cccc(/C=N/NC(=S)Nc2cccc(S(=O)(=O)N(C)C)c2)c1	inactive: -1.93%	
CCCn1c(C(C)Nc2nc(-c3cc(Cl)c(N)c(Cl)c3)cs2)nc2cc(Cl)c(N3CCCCC3)cc21 (configuration not stated)	inactive: -2.68%	
Cc1cccc(NC(=O)CSc2cccc3cccnc23)c1	inactive: -3.45%	
COc1ccc2c(c1)c(=O)c(C(=O)c1ccccc1)cn2Cc1ccc(C)cc1	inactive: -0.974%	
C/C(CCC12CC3CC(CC(C3)C1)C2)=N\NC(N)=S	inactive: 0.0839%	
CNc1sc(C(=O)c2ccccc2F)c(N)c1-c1nc2ccccc2s1	inactive: -1.71%	
CC(=C/c1ccccc1)/C=N/n1c(C)n[nH]c1=S	inactive: -2.2%	
COCCN(C(=O)CN1CCN(S(=O)(=O)c2ccc(F)cc2)CC1)c1c(N)n(Cc2ccccc2)c(=O)[nH]c1=O	inactive: -2.8%	
Cc1cc(C)nc(-n2nc(C)cc2NC(=O)CNC2CCCCC2)n1	inactive: -0.834%	
NC(=S)N/N=C/c1ccccc1OC(=O)c1cc2ccccc2oc1=O	inactive: -2.45%	
COc1cc(CNC2CCCC2)c(Br)cc1OC1CCCC1	inactive: 8.7%	
COc1ccccc1-[n+]1c(C)cc(/C=C2\Sc3ccccc3N2C)cc1C	inactive: 4.51%	
O=C(CSc1nc2ccccc2o1)Nc1nccs1	inactive: -0.716%	
NC(=S)N/N=C1\CC(c2ccc3c(c2)OCCCO3)Oc2ccc(F)cc21 (configuration not stated)	inactive: -3.01%	
O=C(O)C12CC3CC(C1)CC(n1ncc(N4CCN(c5ccccc5)CC4)c(Cl)c1=O)(C3)C2	inactive: -3.23%	
Cc1cc(-c2n[nH]c(=S)n2/N=C/C(Br)=C/c2ccccc2)n[nH]1	inactive: -3.68%	
COc1ccccc1NC(=O)c1c(Nc2ccccc2F)sc(C(=O)Nc2cccc(Cl)c2)c1N	inactive: -0.683%	

Structure (SMILES)	activation	Potency
Oc1c(C(c2ccccn2)N2CCC(Cc3ccccc3)CC2)cc(Cl)c2cccnc12 (configuration not stated)	inactive: -3.72%	
CCOC(=O)C1CCN(C(=O)Nc2c(-c3ccccc3)noc2C)CC1	inactive: -2.17%	
Cc1c(C(=O)OC2CCC(C)CC2)[nH]c2c1C(=O)CCC2 (configuration not stated)	inactive: -0.463%	
CCCn1c(C2CCCN2c2nc(C)cs2)nc2cc(Cl)c(Cl)cc21 (configuration not stated)	inactive: -4.28%	
Cc1ccc(N/C(C(Cl)=C(Cl)Cl)=C(/Cl)[N+](=O)[O-])c(C)c1	inactive: -1%	
Cc1ccc2cccc(SCC(=O)NCC#N)c2n1	inactive: -2.5%	
Cc1cccc(-c2ncc(CN3CCC(CO)(CCCc4ccccc4)CC3)cn2)c1	inactive: -0.561%	
CCN(CC)c1ccc(/C=N/NC(=O)c2cnccn2)c(O)c1	inactive: -0.277%	
CCOC(=O)c1cnc(-n2nc(C)cc2C)nc1N(CC)CC	inactive: 0.576%	
O=C(CC1CC2CCC1C2)Nc1nc(-c2ccccn2)cs1 (configuration not stated)	inactive: -2.48%	
Cc1ccc(C)c(Sc2ccc(NC(=O)CCl)cc2)c1	inactive: 0.091%	
COc1ccc(Cl)cc1C(Nc1cccnc1)c1ccc2cccnc2c1O (configuration not stated)		active: 16.4 µM
C/C(=N\NC(=S)NCCc1ccccc1)c1cccc(Br)c1	inactive: -2.37%	
COc1ccccc1NS(=O)(=O)c1cc(NC(=O)CNC(=O)c2ccc(C)s2)ccc1Cl	inactive: -2.81%	
C/C(CC1CC(C)(C)OC1=O)=N\NC(N)=S (configuration not stated)	inactive: 0.402%	
CCc1ccc(CNc2ccc(O)cc2)cc1	inactive: -3.25%	
CC1CCN(C(=O)c2ccc(N3CCOCC3)c([N+](=O)[O-])c2)CC1	inactive: -4.02%	
CCOc1cccc(N)c1	inactive: -1.3%	
COc1ccc(OC)c(NC(=O)COC(=O)CCc2nc3ccccc3c(=O)[nH]2)c1	inactive: -1.8%	
CC(Oc1ccc(Cl)cc1Cl)C(=O)NCCCCc1ccccc1 (configuration not stated)	inactive: -1.75%	
Cc1cc(C)c(C)c(OC(=O)c2sc(Cl)nc2C)c1	inactive: -2.85%	
CC(=O)Nc1ccc(NC(=O)C/C(C)=N/NC(N)=S)cc1	inactive: -1.88%	
Cc1ccc2nc(N3C(=O)CNC3=S)sc2c1	inactive: -2.5%	

Structure (SMILES)	activation	Potency
O=C(COc1ccccc1[N+](=O)[O-])N/N=C/C=C/c1ccco1	inactive: -1.08%	
CN(C)c1nc(=Nc2cccc(Cl)c2)ss1	inactive: -4.29%	
Cc1ccc(C2=CC(c3cccs3)n3nnnc3N2)cc1 (configuration not stated)	inactive: -2.68%	
CNC(=S)N/N=C/c1c(C)cccc1Cl	inactive: -3.5%	
CCn1c(O)c(N=NC(=S)NCC2CCCO2)c2ccccc21 (configuration not stated)	inactive: -3.84%	
Cn1c(SCC(=O)N/N=C/C=C/c2ccco2)nc2ccccc21	inactive: -1.34%	
C(=N\Nc1nc2ccccc2[nH]1)/C1CCCCC1	inactive: -0.794%	
CCn1c(SCC(=O)N/N=C/C=C\c2ccco2)nc2ccccc21	inactive: -1.57%	
COc1ccc(Nc2cnn(-c3nc4ccccc4s3)c(=O)c2Cl)cc1	inactive: -3.85%	
O=C(CSc1cccc[n+]1[O-])c1ccc(Cl)cc1	inactive: -5.74%	
CCOC(=O)c1ccc(N2C(=O)c3n[nH]c(-c4ccco4)c3C2c2ccc([N+](=O)[O-])cc2)cc1 (configuration not stated)	inactive: -0.353%	
COCC(=O)Nc1c(C(=O)Nc2ccc3c(c2)OCCO3)oc2ccccc12	inactive: -1.76%	
O=C(CC(c1ccco1)S(=O)(=O)c1ccccc1)c1ccccc1 (configuration not stated)	inactive: -2.35%	
Oc1c(CNc2ccccc2)cc(COCc2ccccc2)c2cccnc12	inactive: -5.03%	
O=C(c1ccccc1F)c1cc2c(cc1[N+](=O)[O-])OCCO2	inactive: -3.34%	
O=C(CNCc1ccccc1Cl)Nc1ccc2c(c1)OCCO2	inactive: -0.278%	
NC(=S)N/N=C/c1ccc(-c2cccc([N+](=O)[O-])c2)o1	inactive: -3.06%	
O=C(O)CCc1ccc(-c2ccc(Cl)cc2)o1	inactive: -3.28%	
CCOC(=O)C1=C(C)N(c2ccc(OC)cc2)C(=O)/C1=C\c1ccc(O)c(OCC)c1	inactive: 6.03%	
COc1cccc(C2C=C(Nc3ccccc3)C(=O)N2c2ccccc2)c1 (configuration not stated)	inactive: -2.4%	
Cc1ccc(S(=O)(=O)N(Cc2ccc(Cl)cc2)c2ccccc2C(=O)NCc2ccco2)cc1	inactive: 0.706%	
COc1ccc(CN2CCCC(C(=O)c3ccc(Cl)cc3)C2)cc1Cn1cccn1 (configuration not stated)	inactive: 5.4%	
CCn1c(CNC(=O)c2ccccc2Br)nnc1SCC(=O)Nc1nncs1	inactive: -4.66%	

Exported in markdown: 3 of the compounds above.

| Structure (SMILES) | activation | Potency |
| --- | --- | --- |
| O=C(COc1ccccc1[N+](=O)[O-])N/N=C/C=C/c1ccco1 | inactive: -1.08% |  |
| Cn1c(SCC(=O)N/N=C/C=C/c2ccco2)nc2ccccc21 | inactive: -1.34% |  |
| COc1ccc(CN2CCCC(C(=O)c3ccc(Cl)cc3)C2)cc1Cn1cccn1 (configuration not stated) | inactive: 5.4% |  |

Following part

Structure (SMILES)	activation	Potency
Cc1ccc(N2C(=O)CS/C2=N\C(=S)Nc2ccccc2)cc1	inactive: -4.54%	
COc1cc(/C=C(\C#N)C(=O)NCC2CCCO2)ccc1OC(C)C (configuration not stated)	inactive: -1.1%	
Cc1cc(C(=O)Nc2ccccn2)cs1	inactive: -2.48%	
CC(C)Sc1cc(N2CCCC2)nc(-c2ccccc2)n1	inactive: -2.69%	
S=c1nc2ccccc2c2nc(-c3ccccc3)[nH]n12	inactive: -2.79%	
C/C(=N\NC(=S)NC1CCCCC1)c1ccc(O)cc1	inactive: -4.58%	
O=[N+]([O-])c1ccc2nc(-c3ccccn3)[nH]c2c1	inactive: -5.59%	
Oc1ccc(NCc2cccc(OCc3ccccc3)c2)cc1	inactive: -1.75%	
S=c1c2c(nc3nc[nH]n13)CCC2	inactive: -1.96%	
Cc1cc(C(=O)CN2C(=O)NC3(CCCc4ccccc43)C2=O)c(C)n1C (configuration not stated)	inactive: -2.94%	
Cc1nnc(N/N=C/C2CC=CCC2)[nH]c1=O (configuration not stated)	inactive: -2.25%	
C/C(=N\NC(=S)NCc1ccccc1)C1CCCCC1	inactive: -2.96%	
Cc1ccc(N=Nc2c(C)[nH]n(C(N)=S)c2=O)cc1	inactive: -2.78%	
COCCNC(=S)N/N=C(\C)c1ccc(Cl)c(Cl)c1Cl	inactive: -3.1%	
CCNc1nc(NCC)nc(-n2nc(C)cc2C)n1	inactive: -2.18%	
COc1ccc(NC(=O)c2cc3c(-c4ccc(OC)c(OC)c4)nn(C)c3s2)cc1OC	inactive: -0.0302%	
O=C(CSc1ccc(-c2nc3ccccc3[nH]2)cn1)Nc1ccc(S(=O)(=O)NC2CC2)cc1	inactive: 6.85%	
Cc1ccccc1NC(=O)c1cc(C(=O)c2cc(Cl)ccc2O)cn(-c2ccccc2C)c1=O	inactive: 5.37%	
Cc1ccc(C)c(NC(=O)CSc2nc3nc(-c4cccs4)cc(C(F)(F)F)c3c(=O)[nH]2)c1	inactive: -5.44%	
CN(C)C(=O)CSc1cccc2cccnc12	inactive: -2.43%	
COCCNC(=S)N/N=C(\C)c1cccc(OC)c1	inactive: -1.73%	
Cc1ccc2cccc(SCC(=O)N3CCOCC3)c2n1	inactive: -5.04%	
CC(=O)O[C@H]1CC(C)(C)C(=C=C/C(C)=C/C=C/C(C)=C/C=C/C=C(C)/C=C/C=C(\C)C(=O)C[C@@]23O[C@]2(C)C[C@@H](O)CC3(C)C)[C@](C)(O)C1	inactive: 0.18%	

Structure (SMILES)	activation	Potency
S=C(N/N=C/c1ccco1)NC1CC2CCC1C2 (configuration not stated)	inactive: -2.42%	
COc1ccc(/C(C)=N/NC(=S)Nc2cc(C)ccc2C)cc1	inactive: -2.04%	
CCC(=O)NC(=S)Nc1cccc(Cl)c1N1CCCCC1	inactive: -4.27%	
C/C(=N\NC(=S)NC1CCCCC1)c1ccc(OC(F)F)cc1OC(F)F	inactive: -2.86%	
CCOC(=O)c1cnc(-n2nc(C)cc2C)nc1N(C)C	inactive: -9.18%	
O=C(N/N=C/C=C\c1ccco1)c1cccs1	inactive: -3.24%	
COc1ccc(CN(CCC#N)C(=S)NC(=O)c2ccccc2)cc1	inactive: -3.87%	
Cc1ccccc1NS(=O)(=O)c1ccc2oc(=O)ccc2c1	inactive: -3.24%	
c1ccc(CCNc2nc(-c3ccccn3)cs2)cc1	inactive: -1.29%	
CCOc1ccc2nc(NC(=S)N(C)C)sc2c1	inactive: -1.49%	
Cc1ccc(C(C)NC(=S)NCc2ccc(F)cc2)c(C)c1 (configuration not stated)	inactive: -2.52%	
CCOC(=O)C(NC(=O)c1ccccc1)(N1CCOCC1)C(F)(F)F (configuration not stated)	inactive: -2.15%	
N#C/C(=C\c1ccc(Cl)cc1)c1nc2ccccc2o1	inactive: -0.745%	
O=C(c1cccs1)N1N=C(c2ccccc2)CC1c1ccc(O)cc1 (configuration not stated)	inactive: 6.49%	
CCn1c(SCC(=O)Nc2oc(-c3ccccc3)c(-c3ccccc3)c2C#N)nnc1-c1ccco1	inactive: 6.33%	
CC(=O)Nc1ccc(Nc2cc(C)nc3c(-c4ccccc4)c(C)nn23)cc1	inactive: 0.389%	
CC(=O)/C=C/n1c(=S)oc2ccccc21	inactive: -2.92%	
O=C(COC(=O)c1ccccn1)c1ccc([N+](=O)[O-])cc1	inactive: -3.02%	
COc1cc(-c2nc(-c3ccccc3)c(-c3cc([N+](=O)[O-])ccc3C)[nH]2)cc(OC)c1OC	inactive: -0.686%	
O=C1C[C@@H](c2ccc(O[C@@H]3O[C@H](CO)[C@@H](O)[C@H](O)[C@H]3O)cc2)Oc2cc(O)ccc21	inactive: -1.43%	

Of the compounds above, 11 contain two or more sulfur atoms.
Structure (SMILES)	activation	Potency
COc1cccc(/C=N/NC(=S)Nc2cccc(S(=O)(=O)N(C)C)c2)c1	inactive: -1.93%	
CNc1sc(C(=O)c2ccccc2F)c(N)c1-c1nc2ccccc2s1	inactive: -1.71%	
O=C(CSc1nc2ccccc2o1)Nc1nccs1	inactive: -0.716%	
COc1ccccc1NS(=O)(=O)c1cc(NC(=O)CNC(=O)c2ccc(C)s2)ccc1Cl	inactive: -2.81%	
Cc1ccc2nc(N3C(=O)CNC3=S)sc2c1	inactive: -2.5%	
CN(C)c1nc(=Nc2cccc(Cl)c2)ss1	inactive: -4.29%	
CCn1c(CNC(=O)c2ccccc2Br)nnc1SCC(=O)Nc1nncs1	inactive: -4.66%	
Cc1ccc(N2C(=O)CS/C2=N\C(=S)Nc2ccccc2)cc1	inactive: -4.54%	
O=C(CSc1ccc(-c2nc3ccccc3[nH]2)cn1)Nc1ccc(S(=O)(=O)NC2CC2)cc1	inactive: 6.85%	
Cc1ccc(C)c(NC(=O)CSc2nc3nc(-c4cccs4)cc(C(F)(F)F)c3c(=O)[nH]2)c1	inactive: -5.44%	
CCOc1ccc2nc(NC(=S)N(C)C)sc2c1	inactive: -1.49%	

Source: PubChem BioAssay AID588463 (National Center for Advancing Translational Sciences (NCATS), 2011)
